Where a name gives a salt, the structure may show the parent alone. This is one part of the list. This data set is noisy: repeats of one test often differ as much as different tests do.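 U2OS cells carrying ACE2 were mixed with U2OS cells carrying full-length spike, and fusion was scored by imaging as the share of nuclei showing both cell types' fluorescent markers. A compound counts as an inhibitory hit when it is non-toxic and its fusion z-score falls below -3, meaning more than three standard deviations below the plate's DMSO wells.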
system: U2OS ACE2 x SARS-CoV-2 spike co-culture; experiment: cell-cell fusion (fraction fused) z-score vs plate DMSO control; higher = more fusion; settings: 30 µM; 5 h; toxicity class: non-toxic, passed QC

SMILES	cell-cell fusion (z-score)
CN(C)CCN(Cc1ccccc1)c1ccccn1.Cl [Tripelennamine hydrochloride]	inactive: 2.29
Nc1ccc(S(=O)(=O)c2ccc(N)cc2)cc1 [4,4'-Diaminodiphenylsulfone]	inactive: 3.21
CCC1(CC)C(=O)NC(=O)NC1=O	inactive: 2.26
Nc1nc2ccc(Cl)cc2n2c(-c3ccccc3)nnc12	inactive: 2.08
C(=C\c1ccccc1)/CN1CCN(C(c2ccccc2)c2ccccc2)CC1 [Cinnarizine]	inactive: 0.39
Brc1cc2c(cc1[C@H]1Nc3ccccc3[C@H]3C=CC[C@H]31)OCO2	inactive: 3.76
CC(C)(C(=O)O)c1ccc(C(O)CCCN2CCC(C(O)(c3ccccc3)c3ccccc3)CC2)cc1 (stereo unspecified) [Fexofenadine hydrochloride]	inactive: 1.83
CCN(CC)CCNC(=O)c1cc(S(C)(=O)=O)ccc1OC.Cl	inactive: 2.6
NC(=O)Nc1sc(-c2ccc(F)cc2)cc1C(N)=O	inactive: 1.54
CN(C)CCC(c1ccccc1)c1ccccn1.O=C(O)/C=C\C(=O)O (stereo unspecified)	inactive: 2.07
CC(=O)NO	inactive: -0.357
CC(=O)NO [Acetohydroxamic acid]	inactive: 3.15
CN(C)C1CCN(C(=O)c2ccc(NC(=O)Nc3ccc(-c4nc(N5CCOCC5)nc(N5CCOCC5)n4)cc3)cc2)CC1	inactive: 1.31
CNc1cc(NS(=O)(=O)c2ccc(N)cc2)nc(NC)n1.Cl.Cl [Ro 04-6790 dihydrochloride]	inactive: 2.72
CCCCCCCCCCCCCCCCCCOC[C@H](COP(=O)([O-])OCC[N+](C)(C)C)OC	inactive: -2.62
O.O.O=C(Nc1ccc2c(c1)CCN(Cc1ncn[nH]1)C2)c1ccccc1-c1ccc(C(F)(F)F)cc1	inactive: 3.33
Nc1ccc(S(=O)(=O)c2ccc(N)cc2)cc1	inactive: 0.435
O=[N+]([O-])c1ccc2c(c1)S(=O)(=O)C=C2 [Stattic]	inactive: 0.0921
CC(C)NCC(O)COc1ccc(CC(N)=O)cc1 (racemic) [(±)-Atenolol]	inactive: 2.68
Cl.Oc1noc2c1CCNC2	inactive: -0.346
Cl.Oc1noc2c1CCNC2 [THIP hydrochloride]	inactive: 1.22
CO[C@@]1(NC(=O)C2SC(=C(C(N)=O)C(=O)O)S2)C(=O)N2C(C(=O)O)=C(CSc3nnnn3C)CSC21 (stereo partly specified)	inactive: 1.27
COc1ccc(-c2cc(C(F)F)nn2-c2ccc(S(N)(=O)=O)cc2)cc1F	inactive: -0.0528
CCn1cc(C(=O)O)c(=O)c2cc(F)c(N3CCNCC3)nc21 [Enoxacin]	inactive: 1.97

Reformatted: results already given.
CN(C)C1CCN(C(=O)c2ccc(NC(=O)Nc3ccc(-c4nc(N5CCOCC5)nc(N5CCOCC5)n4)cc3)cc2)CC1
  cell-cell fusion (z-score): inactive: 1.31
CNc1cc(NS(=O)(=O)c2ccc(N)cc2)nc(NC)n1.Cl.Cl [Ro 04-6790 dihydrochloride]
  cell-cell fusion (z-score): inactive: 2.72
CCCCCCCCCCCCCCCCCCOC[C@H](COP(=O)([O-])OCC[N+](C)(C)C)OC
  cell-cell fusion (z-score): inactive: -2.62
O.O.O=C(Nc1ccc2c(c1)CCN(Cc1ncn[nH]1)C2)c1ccccc1-c1ccc(C(F)(F)F)cc1
  cell-cell fusion (z-score): inactive: 3.33

Further results follow:

SMILES	cell-cell fusion (z-score)
Cl.O=C(O)c1cn(-c2ccc(F)cc2)c2cc(N3CCNCC3)c(F)cc2c1=O	inactive: 2.78
O=C(O)/C=C/c1ccc(O)c(O)c1	inactive: 0.624
O=C(O)/C=C/c1ccc(O)c(O)c1 [Caffeic Acid]	inactive: 0.806
COC(=O)[C@@H](N)CCCNC(=N)N[N+](=O)[O-].Cl [NG-Nitro-L-arginine methyl ester hydrochloride]	inactive: 2.28
COc1cc2ccc(=O)oc2c(OC)c1OC	inactive: 1.51
CCN1CCN(Cc2ccc(Nc3ncc(F)c(-c4cc(F)c5nc(C)n(C(C)C)c5c4)n3)nc2)CC1.CS(=O)(=O)O	inactive: 3.28
CCCCN(CCCC)CC(O)c1cc(Cl)cc2c1-c1ccc(Cl)cc1/C2=C/c1ccc(Cl)cc1 (stereo unspecified) [Lumefantrine]	inactive: -0.914
CCOC(=O)C1=C(C)NC(C)=C(C(=O)OC)C1c1cccc([N+](=O)[O-])c1 (stereo unspecified)	inactive: 0.63
CCCCOCCOCCOCc1cc2c(cc1CCC)OCO2 [Piperonyl butoxide]	inactive: 3.42
NC(=O)c1ncn([C@@H]2O[C@H](CO)[C@@H](O)[C@H]2O)c1O [Mizoribine]	inactive: 2.65
NC(=O)c1ncn([C@@H]2O[C@H](CO)[C@@H](O)[C@H]2O)c1O	inactive: 2.25
COc1ccc(-c2cc(=O)c3c(O)cc(OC)c(OC)c3o2)c(OC)c1	inactive: 1.21
CC1=CC(=O)C(C(C)C)=CC1=O	inactive: 2.08
CC(C)C1=CC2=CCC3[C@](C)(CCC[C@]3(C)C(=O)O)C2CC1 (stereo partly specified)	inactive: 2.39
CCOC(=O)C1=C[C@@]2(CC)CCCN3CCc4c(n1c1ccccc41)[C@@H]32 [Vinpocetine (Cavinton)]	inactive: 2.78
CCC1(c2ccccc2)NC(=O)N(C)C1=O (stereo unspecified)	inactive: 3.38
NCCCCCC(=O)O [6-Aminohexanoic acid]	inactive: 0.777
CNC[C@@H](O)c1ccc(O)c(O)c1.O=C(O)C(O)C(O)C(=O)O	inactive: -2.12
CN(C)CCN(Cc1cccs1)c1ccccn1.Cl [Methapyrilene hydrochloride]	inactive: 2.87
O.O.O=C([O-])CCNC(=O)c1ccc(/N=N/c2ccc(O)c(C(=O)[O-])c2)cc1.[Na+].[Na+] [Balsalazide disodium salt dihydrate]	inactive: 0.765
O=C(O)CCCc1ccccc1	inactive: 3.54
CC#CCn1c(N2CCC[C@@H](N)C2)nc2c1c(=O)n(Cc1nc(C)c3ccccc3n1)c(=O)n2C [Linagliptin]	inactive: 2.31
C[C@]12CCC(=O)C=C1CCC1C2C(=O)C[C@@]2(C)C1CC[C@]2(O)C(=O)CO (stereo partly specified)	inactive: 1.82
COc1ccc(-n2nc(C(N)=O)c3c2C(=O)N(c2ccc(N4CCCCC4=O)cc2)CC3)cc1 [Apixaban]	inactive: 1.21

SMILES	cell-cell fusion (z-score)
COC(=O)c1ccccc1O [Methyl salicylate]	inactive: 0.643
NS(=O)(=O)c1cc2c(cc1Cl)NC(C(Cl)Cl)NS2(=O)=O (stereo unspecified)	inactive: 1.82
Cc1cc2c(cc1C1(c3ccc(C(=O)O)cn3)CC1)C(C)(C)CCC2(C)C	inactive: 0.561
CN1CCC[C@H]1c1cccnc1.O=C(O)C(O)C(O)C(=O)O.O=C(O)C(O)C(O)C(=O)O	inactive: 3.86
OC[C@H]1O[C@@H](Oc2ccc(O)cc2)[C@H](O)[C@@H](O)[C@@H]1O	inactive: 2.76
CC(C)C[C@H]1C(=O)N2CCC[C@H]2[C@]2(O)O[C@](NC(=O)[C@@H]3C[C@@H]4c5cccc6[nH]cc(c56)C[C@H]4N(C)C3)(C(C)C)C(=O)N12.CC(C)[C@@]1(NC(=O)[C@@H]2C[C@@H]3c4cccc5[nH]cc(c45)C[C@H]3N(C)C2)O[C@@]2(O)[C@@H]3CCCN3C(=O)[C@H](Cc3ccccc3)N2C1=O.CC(C)[C@H]1C(=O)N2CCC[C@H]2[C@]2(O)O[C@](NC(=O)[C@@H]3C[C@@H]4c5cccc6[nH]cc(c56)C[C@H]4N(C)C3)(C(C)C)C(=O)N12.CCC(C)[C@H]1C(=O)N2CCC[C@H]2[C@]2(O)O[C@](NC(=O)[C@@H]3C[C@@H]4c5cccc6[nH]cc(c56)C[C@H]4N(C)C3)(C(C)C)C(=O)N12.CS(=O)(=O)O [Dihydroergotoxine mesylate]	inactive: -0.535
CCn1cc(C(=O)O)c(=O)c2cc(F)c(N3CCNCC3)nc21.CCn1cc(C(=O)O)c(=O)c2cc(F)c(N3CCNCC3)nc21.O.O.O [Enoxacin Sesquihydrate]	inactive: 2.96
C/C(=C\CO)CC[C@H](C)CCC[C@H](C)CCCC(C)C	inactive: 1.51
COC(=O)C1=C(C)NC(C)=C(C(=O)OC)C1c1ccccc1[N+](=O)[O-] [Nifedipine]	inactive: 0.624
Oc1ccc2ccccc2c1 [beta-NAPHTHOL]	inactive: 0.621
CS(=O)(=O)OCCCCOS(C)(=O)=O [Busulfan]	inactive: 2.46
C[C@H](N[C@@H](CCc1ccccc1)C(=O)O)C(=O)N1CCC[C@H]1C(=O)O [Enalaprilat dihydrate]	inactive: 0.932
CN(C)[C@@H]1C(O)=C(C(N)=O)C(=O)[C@@]2(O)C(O)=C3C(=O)c4c(O)ccc(Cl)c4[C@@](C)(O)[C@H]3C[C@@H]12.Cl [Chlortetracycline hydrochloride]	inactive: 1.08
Cc1cn2cc(C(=O)N(C)CCO)cc(N[C@@H]3CCOc4cccc(C)c43)c2n1	inactive: 3.04
Nc1ccc(C(=O)NCC(=O)O)cc1	inactive: 3.92
O=c1onc2n1-c1cc(Br)ccc1OC2	inactive: 3.73
NC(=O)c1ncn([C@@H]2O[C@@H](CO)[C@@H](O)[C@H]2O)c1N [Acadesine]	inactive: 2.1
NC(CCP(=O)(O)O)C(=O)O (racemic) [(±)-2-Amino-4-phosphonobutyric acid]	inactive: 2.68
Cl.O=C(O)CCC1NCC2CC1CN1CCCCC21 (stereo unspecified)	inactive: 3.13
CCC(C)C(=O)O[C@@H]1C[C@@]2(C)[C@H](c3ccoc3)OC(=O)CC23OC2(C)O[C@]14[C@]1(C)[C@@H](CC(=O)OC)C5(C)CC1(O)[C@](O)(C5OC(=O)C1(C)OC1C)[C@@H](OC(C)=O)[C@]34O2 (stereo partly specified)	inactive: 0.0464
NCCCC[C@H](N)C(=O)O [lysine]	inactive: 1.22
Cc1scc2c1N(C(=O)CN1CCN(C)CC1)c1ccccc1NC2=O.Cl	inactive: -0.916
CCC(=O)N1CCN(C(=O)c2ccccc2)CC1	inactive: 1.93

Reference: the supplement of paper PMC8104966
